{"source": "PubChem BioAssay (NCATS)", "note": "The list shows a part of the results. Shown are side measurements of this screen, not its main read-out; they come without a call. The list favours compounds with an active or inconclusive main result. Words in brackets tell the shape of the fitted curve; partial curves, single points and poor fits give uncertain potencies.", "data": [{"experiment": "S16 Schwann cell PMP22 intronic element beta-lactamase assay (AID 624044)", "settings": "S16 rat Schwann cells, PMP22 element beta-lactamase FRET, 24 h; measured here: 530 nm viability channel", "outline": "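Beta-lactamase reporter under a PMP22 intronic regulatory element in stable S16 rat Schwann cells; 24 h compound exposure. 460 nm blue signal normalized between DMSO (0%) and potassium clavulanate, with 535 nm FRET tracking viability; curves classed by r2 and response.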", "values": [{"smiles": "Cc1cc2nc3c(=O)[nH]c(=O)nc-3n(CC(O)C(O)C(O)COP(=O)(O)O)c2cc1C", "note": "(centres undefined)", "AC50": "15.8 µM [rising, partial curve]"}, {"smiles": "CC(C)C(=O)OCC(=O)[C@@]12OC(C3CCCCC3)O[C@@H]1CC1C3CCC4=CC(=O)C=C[C@]4(C)C3[C@@H](O)C[C@@]12C", "note": "(some centres undefined)", "AC50": "28.2 µM [rising, single point]"}, {"smiles": "CC[C@@H](C)C(N)C(=O)O", "note": "(some centres undefined)", "AC50": "1.58 µM [falling, full curve, poor fit]"}, {"smiles": "CC(C)(C)c1ccc(CN2CCN([C@H](c3ccccc3)c3ccc(Cl)cc3)CC2)cc1", "AC50": "2.82 µM [rising, full curve, poor fit]"}]}]}
